Further values from the same series stand in other lists.
Key:
Type in all cases: cell-based
Settings in all cases: U-87MG ATCC
[1] = Inhibition of RTK/PI3K/AKT/mTOR signaling in human U87 cells assessed as down regulation of OSTF1 gene expression at cytotoxic IC50 measured after 48 hrs relative to control
[2] = Inhibition of RTK/PI3K/AKT/mTOR signaling in human U87 cells assessed as up regulation of CD9 gene expression at cytotoxic IC50 measured after 48 hrs relative to control
[3] = Inhibition of RTK/PI3K/AKT/mTOR signaling in human U87 cells assessed as up regulation of choline/ethanolamine phosphotransferase 1 gene expression at cytotoxic IC50 measured after 48 hrs relative to control
[4] = Inhibition of RTK/PI3K/AKT/mTOR signaling in human U87 cells assessed as down regulation of RIPK1 gene expression at cytotoxic IC50 measured after 48 hrs relative to control
[5] = Inhibition of RTK/PI3K/AKT/mTOR signaling in human U87 cells assessed as up regulation of 5'-nucleotidase ecto gene expression at cytotoxic IC50 measured after 48 hrs relative to control
[6] = Inhibition of RTK/PI3K/AKT/mTOR signaling in human U87 cells assessed as down regulation of RUSC1 gene expression at cytotoxic IC50 measured after 48 hrs relative to control
[7] = Inhibition of RTK/PI3K/AKT/mTOR signaling in human U87 cells assessed as down regulation of PSMD8 gene expression at cytotoxic IC50 measured after 48 hrs relative to control
[8] = Inhibition of RTK/PI3K/AKT/mTOR signaling in human U87 cells assessed as up regulation of GTSF1 gene expression at cytotoxic IC50 measured after 48 hrs relative to control
[9] = Inhibition of RTK/PI3K/AKT/mTOR signaling in human U87 cells assessed as down regulation of EIF5 gene expression at cytotoxic IC50 measured after 48 hrs relative to control
[10] = Inhibition of RTK/PI3K/AKT/mTOR signaling in human U87 cells assessed as down regulation of RAB14 gene expression at cytotoxic IC50 measured after 48 hrs relative to control
[11] = Inhibition of RTK/PI3K/AKT/mTOR signaling in human U87 cells assessed as up regulation of membrane palmitoylated protein 6 gene expression at cytotoxic IC50 measured after 48 hrs relative to control
[12] = Inhibition of RTK/PI3K/AKT/mTOR signaling in human U87 cells assessed as up regulation of RB binding protein 4, chromatin remodeling factor gene expression at cytotoxic IC50 measured after 48 hrs relative to control
[13] = Inhibition of RTK/PI3K/AKT/mTOR signaling in human U87 cells assessed as down regulation of POLR2K gene expression at cytotoxic IC50 measured after 48 hrs relative to control
[14] = Inhibition of RTK/PI3K/AKT/mTOR signaling in human U87 cells assessed as up regulation of jagunal homolog 1 gene expression at cytotoxic IC50 measured after 48 hrs relative to control
[15] = Inhibition of RTK/PI3K/AKT/mTOR signaling in human U87 cells assessed as down regulation of SEC24C gene expression at cytotoxic IC50 measured after 48 hrs relative to control
[16] = Inhibition of RTK/PI3K/AKT/mTOR signaling in human U87 cells assessed as down regulation of TYMS gene expression at cytotoxic IC50 measured after 48 hrs relative to control
[17] = Inhibition of RTK/PI3K/AKT/mTOR signaling in human U87 cells assessed as up regulation of ERI1 gene expression at cytotoxic IC50 measured after 48 hrs relative to control
[18] = Inhibition of RTK/PI3K/AKT/mTOR signaling in human U87 cells assessed as up regulation of KCNG1 gene expression at cytotoxic IC50 measured after 48 hrs relative to control
[19] = Inhibition of RTK/PI3K/AKT/mTOR signaling in human U87 cells assessed as up regulation of ARHGAP22 gene expression at cytotoxic IC50 measured after 48 hrs relative to control
[20] = Inhibition of RTK/PI3K/AKT/mTOR signaling in human U87 cells assessed as down regulation of RUBCN gene expression at cytotoxic IC50 measured after 48 hrs relative to control
[21] = Inhibition of RTK/PI3K/AKT/mTOR signaling in human U87 cells assessed as down regulation of MTMR2 gene expression at cytotoxic IC50 measured after 48 hrs relative to control
[22] = Inhibition of RTK/PI3K/AKT/mTOR signaling in human U87 cells assessed as up regulation of leucine zipper transcription factor like 1 gene expression at cytotoxic IC50 measured after 48 hrs relative to control
[23] = Inhibition of RTK/PI3K/AKT/mTOR signaling in human U87 cells assessed as down regulation of PPP1R12C gene expression at cytotoxic IC50 measured after 48 hrs relative to control
[24] = Inhibition of RTK/PI3K/AKT/mTOR signaling in human U87 cells assessed as up regulation of engulfment and cell motility 3 gene expression at cytotoxic IC50 measured after 48 hrs relative to control
[25] = Inhibition of RTK/PI3K/AKT/mTOR signaling in human U87 cells assessed as down regulation of HCCS gene expression at cytotoxic IC50 measured after 48 hrs relative to control
[26] = Inhibition of RTK/PI3K/AKT/mTOR signaling in human U87 cells assessed as down regulation of MRPL13 gene expression at cytotoxic IC50 measured after 48 hrs relative to control
[27] = Inhibition of RTK/PI3K/AKT/mTOR signaling in human U87 cells assessed as down regulation of HOXA9 gene expression at cytotoxic IC50 measured after 48 hrs relative to control
[28] = Inhibition of RTK/PI3K/AKT/mTOR signaling in human U87 cells assessed as up regulation of NR2F1 antisense RNA 1 gene expression at cytotoxic IC50 measured after 48 hrs relative to control
[29] = Inhibition of RTK/PI3K/AKT/mTOR signaling in human U87 cells assessed as up regulation of CD276 gene expression at cytotoxic IC50 measured after 48 hrs relative to control
[30] = Inhibition of RTK/PI3K/AKT/mTOR signaling in human U87 cells assessed as down regulation of RND1 gene expression at cytotoxic IC50 measured after 48 hrs relative to control
[31] = Inhibition of RTK/PI3K/AKT/mTOR signaling in human U87 cells assessed as down regulation of COPS5 gene expression at cytotoxic IC50 measured after 48 hrs relative to control
[32] = Inhibition of RTK/PI3K/AKT/mTOR signaling in human U87 cells assessed as down regulation of UQCRQ gene expression at cytotoxic IC50 measured after 48 hrs relative to control

## CC(=O)C(=NNc1ccccc1C#N)C(C)=O
[1]
  log2FC: -1.48
[2]
  log2FC: 0.451
[3]
  log2FC: 0.769
[4]
  log2FC: -0.874
[5]
  log2FC: 0.949
[6]
  log2FC: -0.903
[7]
  log2FC: -0.604
[8]
  log2FC: 0.531
[9]
  log2FC: -0.963
[10]
  log2FC: -0.428
[11]
  log2FC: 1.07
[12]
  log2FC: 0.909
[13]
  log2FC: -1.15
[14]
  log2FC: 0.679
[15]
  log2FC: -0.475
[16]
  log2FC: -0.733
[17]
  log2FC: 0.586
[18]
  log2FC: 1.59
[19]
  log2FC: 1.69
[20]
  log2FC: -1.59
[21]
  log2FC: -0.933
[22]
  log2FC: 1.48
[23]
  log2FC: -0.615
[24]
  log2FC: 1.18
[25]
  log2FC: -1.11
[26]
  log2FC: -0.803
[27]
  log2FC: -0.844
[28]
  log2FC: 1.56
[29]
  log2FC: 0.539
[30]
  log2FC: -1.55
[31]
  log2FC: -0.755
[32]
  log2FC: -0.665

From ChEMBL document CHEMBL4316593 (Eur J Med Chem, 2019)
